Source: patent US20160340659A1, “ACTIN BINDING PEPTIDES AND COMPOSITIONS COMPRISING SAME FOR INHIBITING ANGIOGENESIS AND TREATING MEDICAL CONDITIONS ASSOCIATED WITH SAME” (YISSUM RESEARCH AND DEVELOPMENT COMPANY OF THE HEBREW …, priority 2014, published 2016)

System: HUVEC cells
Test: Immunofluorescence localization of labeled peptide in HUVEC cells
Format: cell-based, human

KKYFGRSLELYRELDLNSVLLKLGIK [SEQ ID NO: 57, 26-amino acid peptide representing amino acids 108-133 of RNASET2]
cellular localization of green fluorescent labeled peptide (HUVE cells, 10 minutes, 2 and 8 hours): observed in the cytoplasm surrounding the nucleus
co-localization with angiogenin (HUVEC cells incubated with peptide and angiogenin, 10 min, 2 h, 8 h): co-localization of both molecules was observed
